The values below come from publication PMC7588454.

The chains behind the UniProt entries cited, without tags or fusion partners. Residues count along the entry.
UniProt Q9JHJ8, residues 44-322: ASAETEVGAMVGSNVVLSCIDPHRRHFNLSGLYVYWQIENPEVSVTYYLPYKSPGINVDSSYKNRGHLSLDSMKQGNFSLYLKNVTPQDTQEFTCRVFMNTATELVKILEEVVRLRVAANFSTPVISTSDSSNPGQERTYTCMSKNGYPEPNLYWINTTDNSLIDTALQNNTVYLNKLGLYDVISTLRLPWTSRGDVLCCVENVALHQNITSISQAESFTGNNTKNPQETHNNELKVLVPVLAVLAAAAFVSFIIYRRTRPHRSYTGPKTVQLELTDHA
UniProt P10923, residues 17-294: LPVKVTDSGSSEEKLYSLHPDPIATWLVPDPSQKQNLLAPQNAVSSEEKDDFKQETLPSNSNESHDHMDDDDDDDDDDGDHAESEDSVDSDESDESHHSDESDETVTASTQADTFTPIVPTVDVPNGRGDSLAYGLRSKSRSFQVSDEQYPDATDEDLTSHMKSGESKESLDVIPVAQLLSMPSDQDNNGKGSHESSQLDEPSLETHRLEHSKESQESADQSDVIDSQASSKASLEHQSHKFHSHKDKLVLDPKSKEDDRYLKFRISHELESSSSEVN

Assay [1] concerns the target ICOSL expressed from a plasmid in 4T1 cells (4T1-ICOSL) (not stated (human or mouse cDNA cloned)) (UniProt Q9JHJ8). The assay is described as follows: proximity ligation; primary tumor sections of 4T1 and 4T1-ICOSL tumors grown in BALB/c mice; goat anti-OPN and rabbit anti-ICOSL, Duolink kit.
Assay [2] has as its target mouse ICOSL, endogenous in tissue (mouse (endogenous in kidney)) (UniProt Q9JHJ8). The assay is described as follows: proximity ligation; kidney sections of C57BL/6J and MRL-lpr mice; goat anti-OPN and rabbit anti-ICOSL, Duolink kit; OPN-/- and ICOSL-/- mice as negative controls.

Results are given in words; binding and its absence hold for the method and conditions named. Binding seen in cells or lysates may run through a third protein. Some binding calls cover weakened binding; strength is not graded here.

As to “mouse OPN, endogenous in tissue (from UniProt P10923 17-294)”, the binding entry in assay [1] and in assay [2] was “binds” each time.
